Experimental data: the supplement of paper PMC7646827
Counter-ions that a name gives are not always drawn. Single values are uncertain, as repeats are few or missing.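 All cells are established human bladder cancer lines, one derived from a patient-derived xenograft. A luminescent ATP assay measured viability as percent inhibition relative to vehicle across seven dilutions. The paper rates scores above 59 very active, 30–59 active, 21–29 semi-active, 9–20 low active, below 9 inactive.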

Key:
Assay in all cases: drug sensitivity score DSS3 (score 0-100); higher = more sensitive; extreme values may be limits of the assay
Details in all cases: culture: 3D, ultra-low attachment; treatment time: 5 days
UM-UC-18 = test system: UM-UC-18
UM-UC-9 = test system: UM-UC-9
UM-UC-12 = test system: UM-UC-12
TCCSUP = test system: TCCSUP
UM-UC-17 = test system: UM-UC-17
UM-UC-6 = test system: UM-UC-6
SW780 = test system: SW780
UM-UC-3 = test system: UM-UC-3
UM-UC-14 = test system: UM-UC-14
SCaBER = test system: SCaBER
T-24 = test system: T-24
UM-UC-1 = test system: UM-UC-1
5637 = test system: 5637
J82 = test system: J82
UM-UC-5 = test system: UM-UC-5
BC8149 = test system: BC8149
UM-UC-15 = test system: UM-UC-15

Row | SMILES | drug sensitivity score DSS3 (UM-UC-18) | drug sensitivity score DSS3 (UM-UC-9) | drug sensitivity score DSS3 (UM-UC-12) | drug sensitivity score DSS3 (TCCSUP) | drug sensitivity score DSS3 (UM-UC-17) | drug sensitivity score DSS3 (UM-UC-6) | drug sensitivity score DSS3 (SW780) | drug sensitivity score DSS3 (UM-UC-3) | drug sensitivity score DSS3 (UM-UC-14) | drug sensitivity score DSS3 (SCaBER) | drug sensitivity score DSS3 (T-24) | drug sensitivity score DSS3 (UM-UC-1) | drug sensitivity score DSS3 5637 | drug sensitivity score DSS3 (J82) | drug sensitivity score DSS3 (UM-UC-5) | drug sensitivity score DSS3 (BC8149) | drug sensitivity score DSS3 (UM-UC-15)
1 | CC(C)(C)c1nc(-c2cccc(NS(=O)(=O)c3c(F)cccc3F)c2F)c(-c2ccnc(N)n2)s1 [Dabrafenib] (max dose 10000 nM) | 0 | 0 | 0 | 3.24 | 0 | 0 | 0 | 0.947 | 0 | 1.2 | 0.27 | 0 | 2.71 | 0 | 0 | 1.05 | 0.103
2 | O=C1CC(c2c[nH]c3ccc(F)cc23)C(=O)N1 (stereo not given) (max dose 10000 nM) | 0 | 0 | 0 | 0 | 0 | 0 | 0 | 0 | 0 | 0 | 0 | 0 | 0 | 0 | 0 | 0.16 | 0
3 | CN1C(=O)NC(Cc2c[nH]c3c(Cl)cccc23)C1=O (stereo not given) [Nec-1s (7-Cl-O-Nec1)] (max dose 10000 nM) | 3.66 | 1.61 | 1.97 | 0.236 | 0.227 | 0.105 | 1.37 | 0 | 0.6 | 1.77 | 0 | 0.219 | 0.221 | 0.142 | 1.29 | 1.04 | 1.6
4 | N[C@@H](CSCCB(O)O)C(=O)O [BEC HCl] (max dose 10000 nM) | 0 | 0 | 3.22 | 5.71 | 0 | 1.82 | 0 | 0 | 0.663 | 0 | 0 | 0 | 4.41 | 0 | 0 | 0 | 39.5
5 | CC(C)(F)C[C@H](N[C@@H](c1ccc(-c2ccc(S(C)(=O)=O)cc2)cc1)C(F)(F)F)C(=O)NC1(C#N)CC1 [Odanacatib (MK-0822)] (max dose 10000 nM) | 0 | 0 | 0 | 0 | 0 | 0.00153 | 0 | 0 | 1.56 | 0 | 0 | 0 | 0 | 0 | 0 | 0 | 0
6 | COCCOc1ccc2c(c1)ncn2-c1ccc2cccc(N3CCC(N)CC3)c2n1 (max dose 10000 nM) | 0 | 0 | 0 | 0.126 | 0 | 0.637 | 0 | 0.387 | 0 | 0.187 | 1.16 | 0.143 | 0 | 0 | 0 | 0.177 | 6.7
7 | CNCc1ccc(C)c(NC(=O)c2ccc(Nc3nc(-c4ccccc4)c4ccccc4n3)cc2)c1 (max dose 10000 nM) | 0 | 0 | 0 | 0 | 0 | 0 | 1.76 | 0.751 | 0 | 0 | 0 | 0 | 0 | 0 | 0 | 0 | 0.253
8 | CCN(CC)CCNC(=O)c1c(C)[nH]c(/C=C2\C(=O)Nc3ccc(F)cc32)c1C [Sunitinib malate] (max dose 10000 nM) | 0.668 | 0 | 0 | 4.49 | 0 | 0 | 0 | 0 | 0 | 0 | 0 | 0 | 2.64 | 0 | 0 | 2.3 | 1.55
9 | COc1ccc(-c2ccc3c(N4CCOCC4)nc(N4C[C@@H](C)O[C@@H](C)C4)nc3n2)cc1CO (max dose 10000 nM) | 1.66 | 1.2 | 1.58 | 15.3 | 1.57 | 6.88 | 1.32 | 3.3 | 5.53 | 6.78 | 0 | 14.9 | 11 | 1.74 | 5.79 | 14 | 0
10 | CC(C)[C@]12O[C@H]1[C@@H]1O[C@]13[C@]1(O[C@H]1C[C@H]1C4=C(CC[C@@]13C)C(=O)OC4)[C@@H]2O [Triptolide (PG490)] (max dose 10000 nM) | 69.6 | 45.5 | 47.6 | 63.6 | 70.7 | 62.6 | 49.9 | 55.9 | 64.2 | 68.5 | 56 | 61.8 | 68.2 | 66.8 | 68.5 | 64.1 | 74
11 | CC(C)(C)c1cc(NC(=O)Nc2ccc(-c3cn4c(n3)sc3cc(OCCN5CCOCC5)ccc34)cc2)no1 [Quizartinib (AC220)] (max dose 10000 nM) | 0 | 0 | 0 | 1.83 | 1.59 | 0.435 | 0.274 | 0 | 0.615 | 0 | 0 | 0.716 | 0 | 0 | 0 | 1.42 | 1.59
12 | Cc1cccc(-c2[nH]c(C(C)(C)C)nc2-c2ccc3nccnc3c2)n1 (max dose 10000 nM) | 0.0889 | 0 | 0.94 | 0 | 0 | 0 | 0 | 0.589 | 0 | 0 | 0.0283 | 0 | 0.308 | 0 | 0 | 0 | 0
13 | C=C1/C(=C\C=C2/CCC[C@]3(C)[C@@H]([C@H](C)/C=C/[C@H](C)C(C)C)CC[C@@H]23)C[C@@H](O)C[C@@H]1O [Doxercalciferol] (max dose 10000 nM) | 0 | 0 | 0 | 0 | 0 | 0 | 0 | 0 | 0 | 0 | 0 | 0 | 0 | 0 | 0 | 0 | 0
14 | C=C[C@@H]1C[C@]1(NC(=O)[C@@H]1C[C@@H](Oc2ncc(OC)c3ccc(Cl)cc23)CN1C(=O)[C@@H](NC(=O)OC(C)(C)C)C(C)(C)C)C(=O)NS(=O)(=O)C1CC1 [Asunaprevir] (max dose 10000 nM) | 0 | 0 | 0 | 0 | 0 | 0 | 0 | 0 | 0 | 0 | 0 | 0 | 0 | 0 | 0 | 0 | 0
15 | C=C1C[C@@H]2[C@H](CC[C@]3(C)C(=O)CC[C@@H]23)[C@@]2(C)C=CC(=O)C=C12 [Exemestane] (max dose 10000 nM) | 5.38 | 0 | 0 | 3.96 | 1.5 | 0.906 | 0 | 0 | 0.547 | 0 | 0 | 1.2 | 4.02 | 2.29 | 0 | 0.026 | 0
16 | O=C(O)CCCc1ccccc1 [Sodium Phenylbutyrate] (max dose 10000 nM) | 0 | 0 | 0 | 0 | 0 | 0 | 0 | 0 | 0.581 | 0 | 0 | 0 | 0 | 0 | 0 | 0 | 14.9
17 | COc1ccc(-c2nc3cc(C4=NNC(=O)CC4C)ccc3[nH]2)cc1 (stereo not given) [Pimobendan] (max dose 10000 nM) | 0.604 | 0 | 0 | 0.398 | 0.643 | 0.396 | 0 | 0.807 | 0 | 0 | 0 | 0 | 0 | 0 | 0 | 0.563 | 4.49
18 | O=C(O[C@@H]1Cc2c(O)cc(O)cc2O[C@@H]1c1cc(O)c(O)c(O)c1)c1cc(O)c(O)c(O)c1 [(-)-Epigallocatechin Gallate] (max dose 10000 nM) | 0.793 | 0.214 | 0 | 6.57 | 3.45 | 1.53 | 0.272 | 0.876 | 1.13 | 2.39 | 0 | 1.66 | 5.02 | 0 | 0 | 1.2 | 0
19 | Fc1ccc(Cl)cc1-c1nc(Nc2ccncc2)c2nccnc2n1 [SD-208] (max dose 10000 nM) | 0 | 0.691 | 0 | 0 | 0 | 0 | 0 | 0 | 0 | 0 | 0 | 0 | 0 | 0 | 0 | 0 | 3.3
20 | CC(C)N(C[C@H]1O[C@@H](n2cnc3c(N)ncnc32)[C@H](O)[C@@H]1O)[C@H]1C[C@@H](CCc2nc3cc(C(C)(C)C)ccc3[nH]2)C1 [pinometostat] (max dose 10000 nM) | 0 | 0 | 0 | 1.02 | 0 | 0 | 0 | 0 | 0 | 0 | 0.934 | 0 | 0 | 0 | 0 | 0 | 32.4

Shown with tabs: entries from further up
Row	SMILES	drug sensitivity score DSS3 (UM-UC-18)	drug sensitivity score DSS3 (UM-UC-9)	drug sensitivity score DSS3 (UM-UC-12)	drug sensitivity score DSS3 (TCCSUP)	drug sensitivity score DSS3 (UM-UC-17)	drug sensitivity score DSS3 (UM-UC-6)	drug sensitivity score DSS3 (SW780)	drug sensitivity score DSS3 (UM-UC-3)	drug sensitivity score DSS3 (UM-UC-14)	drug sensitivity score DSS3 (SCaBER)	drug sensitivity score DSS3 (T-24)	drug sensitivity score DSS3 (UM-UC-1)	drug sensitivity score DSS3 5637	drug sensitivity score DSS3 (J82)	drug sensitivity score DSS3 (UM-UC-5)	drug sensitivity score DSS3 (BC8149)	drug sensitivity score DSS3 (UM-UC-15)
13	C=C1/C(=C\C=C2/CCC[C@]3(C)[C@@H]([C@H](C)/C=C/[C@H](C)C(C)C)CC[C@@H]23)C[C@@H](O)C[C@@H]1O [Doxercalciferol] (max dose 10000 nM)	0	0	0	0	0	0	0	0	0	0	0	0	0	0	0	0	0
15	C=C1C[C@@H]2[C@H](CC[C@]3(C)C(=O)CC[C@@H]23)[C@@]2(C)C=CC(=O)C=C12 [Exemestane] (max dose 10000 nM)	5.38	0	0	3.96	1.5	0.906	0	0	0.547	0	0	1.2	4.02	2.29	0	0.026	0
